# Source: patent publication US20160113911A1, “METHODS AND COMPOSITIONS FOR THE TREATMENT OF CANCER” (THE GENERAL HOSPITAL CORPORATION, priority 2013, published 2016)
# Test: Subcellular localization of KDM4 variants (immunofluorescence)
# Type: cell-based
# Details: KDM4D mutations
row,Molecule,Localization
1,G373C: KDM4D mutation (protein) METMKSKANCAQNPNCNIMIFHPTKEEFNDFDKYIAYMESQGAHRAGLAKIIPPKEWKARETYDNISEILIATPLQQVASGRAGVFTQYHKKKKAMTVGEYRHLANSKKYQTPPHQNFEDLERKYWKNRIYNSPIYGADISGSLFDENTKQWNLGHLGTIQDLLEKECGVVIEGVNTPYLYFGMWKTTFAWHTEDMDLYSINYLHLGEPKTWYVVPPEHGQRLERLARELFPGSSRGCGAFLRHKVALISPTVLKENGIPFNRITQEAGEFMVTFPYGYHAGFNHGFNCAEAINFATPRWIDYGKMASQCSCGEARVTFSMDAFVRILQPERYDLWKRGQDRAVVDHMEPRVPASQELSTQKEVQLPRRAALCLRQLPSHWARHSPWPMAARSGTRCHTLVCSSLPRRSAVSGTATQPRAAAVHSSKKPSSTPSSTPGPSAQIIHPSNGRRGRGRPPQKLRAQELTLQTPAKRPLLAGTTCTASGPEPEPLPEDGALMDKPVPLSPGLQHPVKASGCSWAPVP,+++ (+++ indicates >80% nuclear)
2,R375I: KDM4D mutation (protein) METMKSKANCAQNPNCNIMIFHPTKEEFNDFDKYIAYMESQGAHRAGLAKIIPPKEWKARETYDNISEILIATPLQQVASGRAGVFTQYHKKKKAMTVGEYRHLANSKKYQTPPHQNFEDLERKYWKNRIYNSPIYGADISGSLFDENTKQWNLGHLGTIQDLLEKECGVVIEGVNTPYLYFGMWKTTFAWHTEDMDLYSINYLHLGEPKTWYVVPPEHGQRLERLARELFPGSSRGCGAFLRHKVALISPTVLKENGIPFNRITQEAGEFMVTFPYGYHAGFNHGFNCAEAINFATPRWIDYGKMASQCSCGEARVTFSMDAFVRILQPERYDLWKRGQDRAVVDHMEPRVPASQELSTQKEVQLPRRAALGLIQLPSHWARHSPWPMAARSGTRCHTLVCSSLPRRSAVSGTATQPRAAAVHSSKKPSSTPSSTPGPSAQIIHPSNGRRGRGRPPQKLRAQELTLQTPAKRPLLAGTTCTASGPEPEPLPEDGALMDKPVPLSPGLQHPVKASGCSWAPVP,+++ (+++ indicates >80% nuclear)
3,L508R: KDM4D mutation (protein) METMKSKANCAQNPNCNIMIFHPTKEEFNDFDKYIAYMESQGAHRAGLAKIIPPKEWKARETYDNISEILIATPLQQVASGRAGVFTQYHKKKKAMTVGEYRHLANSKKYQTPPHQNFEDLERKYWKNRIYNSPIYGADISGSLFDENTKQWNLGHLGTIQDLLEKECGVVIEGVNTPYLYFGMWKTTFAWHTEDMDLYSINYLHLGEPKTWYVVPPEHGQRLERLARELFPGSSRGCGAFLRHKVALISPTVLKENGIPFNRITQEAGEFMVTFPYGYHAGFNHGFNCAEAINFATPRWIDYGKMASQCSCGEARVTFSMDAFVRILQPERYDLWKRGQDRAVVDHMEPRVPASQELSTQKEVQLPRRAALGLRQLPSHWARHSPWPMAARSGTRCHTLVCSSLPRRSAVSGTATQPRAAAVHSSKKPSSTPSSTPGPSAQIIHPSNGRRGRGRPPQKLRAQELTLQTPAKRPLLAGTTCTASGPEPEPLPEDGALMDKPVPLSPGRQHPVKASGCSWAPVP,+++ (+++ indicates >80% nuclear)
4,S484L: KDM4D mutation (protein) METMKSKANCAQNPNCNIMIFHPTKEEFNDFDKYIAYMESQGAHRAGLAKIIPPKEWKARETYDNISEILIATPLQQVASGRAGVFTQYHKKKKAMTVGEYRHLANSKKYQTPPHQNFEDLERKYWKNRIYNSPIYGADISGSLFDENTKQWNLGHLGTIQDLLEKECGVVIEGVNTPYLYFGMWKTTFAWHTEDMDLYSINYLHLGEPKTWYVVPPEHGQRLERLARELFPGSSRGCGAFLRHKVALISPTVLKENGIPFNRITQEAGEFMVTFPYGYHAGFNHGFNCAEAINFATPRWIDYGKMASQCSCGEARVTFSMDAFVRILQPERYDLWKRGQDRAVVDHMEPRVPASQELSTQKEVQLPRRAALGLRQLPSHWARHSPWPMAARSGTRCHTLVCSSLPRRSAVSGTATQPRAAAVHSSKKPSSTPSSTPGPSAQIIHPSNGRRGRGRPPQKLRAQELTLQTPAKRPLLAGTTCTALGPEPEPLPEDGALMDKPVPLSPGLQHPVKASGCSWAPVP,+++ (+++ indicates >80% nuclear)
5,G47D: KDM4D mutation (protein) METMKSKANCAQNPNCNIMIFHPTKEEFNDFDKYIAYMESQGAHRADLAKIIPPKEWKARETYDNISEILIATPLQQVASGRAGVFTQYHKKKKAMTVGEYRHLANSKKYQTPPHQNFEDLERKYWKNRIYNSPIYGADISGSLFDENTKQWNLGHLGTIQDLLEKECGVVIEGVNTPYLYFGMWKTTFAWHTEDMDLYSINYLHLGEPKTWYVVPPEHGQRLERLARELFPGSSRGCGAFLRHKVALISPTVLKENGIPFNRITQEAGEFMVTFPYGYHAGFNHGFNCAEAINFATPRWIDYGKMASQCSCGEARVTFSMDAFVRILQPERYDLWKRGQDRAVVDHMEPRVPASQELSTQKEVQLPRRAALGLRQLPSHWARHSPWPMAARSGTRCHTLVCSSLPRRSAVSGTATQPRAAAVHSSKKPSSTPSSTPGPSAQIIHPSNGRRGRGRPPQKLRAQELTLQTPAKRPLLAGTTCTASGPEPEPLPEDGALMDKPVPLSPGLQHPVKASGCSWAPVP,− (− indicates 20-39% nuclear)
6,S393I: KDM4D mutation (protein) METMKSKANCAQNPNCNIMIFHPTKEEFNDFDKYIAYMESQGAHRAGLAKIIPPKEWKARETYDNISEILIATPLQQVASGRAGVFTQYHKKKKAMTVGEYRHLANSKKYQTPPHQNFEDLERKYWKNRIYNSPIYGADISGSLFDENTKQWNLGHLGTIQDLLEKECGVVIEGVNTPYLYFGMWKTTFAWHTEDMDLYSINYLHLGEPKTWYVVPPEHGQRLERLARELFPGSSRGCGAFLRHKVALISPTVLKENGIPFNRITQEAGEFMVTFPYGYHAGFNHGFNCAEAINFATPRWIDYGKMASQCSCGEARVTFSMDAFVRILQPERYDLWKRGQDRAVVDHMEPRVPASQELSTQKEVQLPRRAALGLRQLPSHWARHSPWPMAARIGTRCHTLVCSSLPRRSAVSGTATQPRAAAVHSSKKPSSTPSSTPGPSAQIIHPSNGRRGRGRPPQKLRAQELTLQTPAKRPLLAGTTCTASGPEPEPLPEDGALMDKPVPLSPGLQHPVKASGCSWAPVP,+++ (+++ indicates >80% nuclear)
7,G394E: KDM4D mutation (protein) METMKSKANCAQNPNCNIMIFHPTKEEFNDFDKYIAYMESQGAHRAGLAKIIPPKEWKARETYDNISEILIATPLQQVASGRAGVFTQYHKKKKAMTVGEYRHLANSKKYQTPPHQNFEDLERKYWKNRIYNSPIYGADISGSLFDENTKQWNLGHLGTIQDLLEKECGVVIEGVNTPYLYFGMWKTTFAWHTEDMDLYSINYLHLGEPKTWYVVPPEHGQRLERLARELFPGSSRGCGAFLRHKVALISPTVLKENGIPFNRITQEAGEFMVTFPYGYHAGFNHGFNCAEAINFATPRWIDYGKMASQCSCGEARVTFSMDAFVRILQPERYDLWKRGQDRAVVDHMEPRVPASQELSTQKEVQLPRRAALGLRQLPSHWARHSPWPMAARSETRCHTLVCSSLPRRSAVSGTATQPRAAAVHSSKKPSSTPSSTPGPSAQIIHPSNGRRGRGRPPQKLRAQELTLQTPAKRPLLAGTTCTASGPEPEPLPEDGALMDKPVPLSPGLQHPVKASGCSWAPVP,+++ (+++ indicates >80% nuclear)
8,E487K: KDM4D mutation (protein) METMKSKANCAQNPNCNIMIFHPTKEEFNDFDKYIAYMESQGAHRAGLAKIIPPKEWKARETYDNISEILIATPLQQVASGRAGVFTQYHKKKKAMTVGEYRHLANSKKYQTPPHQNFEDLERKYWKNRIYNSPIYGADISGSLFDENTKQWNLGHLGTIQDLLEKECGVVIEGVNTPYLYFGMWKTTFAWHTEDMDLYSINYLHLGEPKTWYVVPPEHGQRLERLARELFPGSSRGCGAFLRHKVALISPTVLKENGIPFNRITQEAGEFMVTFPYGYHAGFNHGFNCAEAINFATPRWIDYGKMASQCSCGEARVTFSMDAFVRILQPERYDLWKRGQDRAVVDHMEPRVPASQELSTQKEVQLPRRAALGLRQLPSHWARHSPWPMAARSGTRCHTLVCSSLPRRSAVSGTATQPRAAAVHSSKKPSSTPSSTPGPSAQIIHPSNGRRGRGRPPQKLRAQELTLQTPAKRPLLAGTTCTASGPKPEPLPEDGALMDKPVPLSPGLQHPVKASGCSWAPVP,+++ (+++ indicates >80% nuclear)
9,R419Q: KDM4D mutation (protein) METMKSKANCAQNPNCNIMIFHPTKEEFNDFDKYIAYMESQGAHRAGLAKIIPPKEWKARETYDNISEILIATPLQQVASGRAGVFTQYHKKKKAMTVGEYRHLANSKKYQTPPHQNFEDLERKYWKNRIYNSPIYGADISGSLFDENTKQWNLGHLGTIQDLLEKECGVVIEGVNTPYLYFGMWKTTFAWHTEDMDLYSINYLHLGEPKTWYVVPPEHGQRLERLARELFPGSSRGCGAFLRHKVALISPTVLKENGIPFNRITQEAGEFMVTFPYGYHAGFNHGFNCAEAINFATPRWIDYGKMASQCSCGEARVTFSMDAFVRILQPERYDLWKRGQDRAVVDHMEPRVPASQELSTQKEVQLPRRAALGLRQLPSHWARHSPWPMAARSGTRCHTLVCSSLPRRSAVSGTATQPQAAAVHSSKKPSSTPSSTPGPSAQIIHPSNGRRGRGRPPQKLRAQELTLQTPAKRPLLAGTTCTASGPEPEPLPEDGALMDKPVPLSPGLQHPVKASGCSWAPVP,− (− indicates 20-39% nuclear)
10,R392H: KDM4D mutation (protein) METMKSKANCAQNPNCNIMIFHPTKEEFNDFDKYIAYMESQGAHRAGLAKIIPPKEWKARETYDNISEILIATPLQQVASGRAGVFTQYHKKKKAMTVGEYRHLANSKKYQTPPHQNFEDLERKYWKNRIYNSPIYGADISGSLFDENTKQWNLGHLGTIQDLLEKECGVVIEGVNTPYLYFGMWKTTFAWHTEDMDLYSINYLHLGEPKTWYVVPPEHGQRLERLARELFPGSSRGCGAFLRHKVALISPTVLKENGIPFNRITQEAGEFMVTFPYGYHAGFNHGFNCAEAINFATPRWIDYGKMASQCSCGEARVTFSMDAFVRILQPERYDLWKRGQDRAVVDHMEPRVPASQELSTQKEVQLPRRAALGLRQLPSHWARHSPWPMAAHSGTRCHTLVCSSLPRRSAVSGTATQPRAAAVHSSKKPSSTPSSTPGPSAQIIHPSNGRRGRGRPPQKLRAQELTLQTPAKRPLLAGTTCTASGPEPEPLPEDGALMDKPVPLSPGLQHPVKASGCSWAPVP,+++ (+++ indicates >80% nuclear)
